Primary screen of a compound library

Amino acid sequences for entries named in this document (tags omitted).
UniProt E9BF75, entry or part of it: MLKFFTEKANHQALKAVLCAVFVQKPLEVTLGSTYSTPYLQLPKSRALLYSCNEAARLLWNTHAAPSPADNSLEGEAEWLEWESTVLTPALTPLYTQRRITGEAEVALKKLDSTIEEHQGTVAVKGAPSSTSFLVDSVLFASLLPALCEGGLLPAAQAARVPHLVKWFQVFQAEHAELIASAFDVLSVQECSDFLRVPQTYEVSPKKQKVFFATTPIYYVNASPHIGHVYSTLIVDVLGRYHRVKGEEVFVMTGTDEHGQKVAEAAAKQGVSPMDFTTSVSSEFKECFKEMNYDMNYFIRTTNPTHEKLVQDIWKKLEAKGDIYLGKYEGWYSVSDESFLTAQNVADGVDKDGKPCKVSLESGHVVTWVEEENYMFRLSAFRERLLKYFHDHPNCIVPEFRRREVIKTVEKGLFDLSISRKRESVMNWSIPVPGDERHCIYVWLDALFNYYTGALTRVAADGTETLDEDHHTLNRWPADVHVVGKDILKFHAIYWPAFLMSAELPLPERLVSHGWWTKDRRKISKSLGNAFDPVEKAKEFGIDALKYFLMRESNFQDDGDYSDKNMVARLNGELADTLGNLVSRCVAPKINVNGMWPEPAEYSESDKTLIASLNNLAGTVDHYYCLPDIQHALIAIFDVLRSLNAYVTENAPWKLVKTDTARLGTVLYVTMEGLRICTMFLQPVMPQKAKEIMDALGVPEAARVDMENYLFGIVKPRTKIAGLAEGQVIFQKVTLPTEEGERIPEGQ

The values are deposited in ChEMBL (CHEMBL3988442, “University of Dundee, Small-Polar-MMV Screening Library” (2021)).

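Primary screen of methionyl-tRNA synthetase; the read-out is not stated. Target: Methionyl-tRNA synthetase (putative), Leishmania donovani (UniProt E9BF75). The test concentration is not given. The values are filed as inhibition. Size under these conditions: about 68,000 compounds, about 24 of them at 50% or above in at least one test.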

All values are in %.
How 0% and 100% were set is not recorded. Most values in the screen are low, and negative values occur.
The compounds are a random part of those screened.

CC(C)(C)c1ncc(C(=O)NCCSc2ccccn2)c(O)n1 gave 7.292%.
CCn1ncc(S(=O)(=O)N[C@@H]2CC[C@@H](n3ccnc3)[C@@H]2O)c1C gave 10.59%.
O=C(CC1CCN(c2cccnn2)CC1)Nc1nncs1 gave 13.65%.
O=C(Cc1cccnc1)NCCS(=O)(=O)c1ccccc1F gave 6.72%.
Cc1nc(CN2CCCn3nc(CNC(=O)C4CCC4)cc3C2)co1 gave 12.71%.
CCc1nc(C2CCCN(C(=O)C3=NN(CC)C(=O)CC3)C2)no1 (stereo unspecified) gave 5.396%.
CS(=O)(=O)NCC1CCCN(C(=O)Nc2cccc3ccccc23)C1 (stereo unspecified) gave 19.63%.
CCC1CCCCN1Cc1nc2c(cnn2C)c(=O)[nH]1 (stereo unspecified) gave 15.92%.
O=C(C1CCOC1)N1CCC2(CCCNC2)CC1 (stereo unspecified) gave 5.602%.
COc1ncccc1CN1CCc2[nH]nc(C(=O)N(C)C)c2C1 gave 10.08%.
CCOc1ccc2nc(CN3CCC(CN)C3)ccc2c1 (stereo unspecified) gave 9.524%.
O=C(NCc1nc(C2CC2)no1)N1CCOC(c2ccccc2)C1 (stereo unspecified) gave 5.396%.
CC(C)N(CC(N)=O)Cc1csc(COc2ccc(F)cc2)n1 gave 12.68%.
COc1cccc(-c2noc(-c3ccc(N4CC(N)C4)nc3)n2)c1OC gave 17.32%.
Cc1ccc(C(=O)N2CCC3(CC2)CC(c2ccccc2)C(=O)N3)cn1 (stereo unspecified) gave 7.113%.
CS(=O)(=O)NCc1cc2n(n1)CCCN(Cc1ccc(Cl)s1)C2 gave 12.64%.
O=C(NCc1ccncc1)N1CC(Cc2ccccc2F)C1 gave 14.57%.
CC1(C)CNC(=O)CN(C(=O)CCc2ccccc2)C1 gave 10%.
COCCN1CCN(S(=O)(=O)C2CC2)Cc2cccnc21 gave 17.49%.
CN(CCCc1ccc(C(F)(F)F)cc1)Cc1nccn1C gave 6.774%.
CCC(CC)(CCCNC(=O)c1c(C)noc1C)C1OCCO1 gave 10.99%.
CCC(CC)C(=O)N1CCN(Cc2cc(-c3ccncc3)nn2C)CC1 gave 10.94%.
CS(=O)(=O)Cc1ccc(NC(=O)Cc2cccnc2)cc1F gave 9.924%.
NC(=O)c1cn2cc(-c3ccccc3Cl)n(CC3CC3)c(=O)c2n1 gave -1.023%.
CC(C)CN1CCN(S(=O)(=O)c2cn(C)cn2)Cc2cccnc21 gave 9.42%.
CC(C)c1ccc(OCCC(=O)N2CCCC(C(N)=O)C2)cc1 (stereo unspecified) gave 21.31%.
CN(CC(=O)N1CCC(OCc2cccnc2)CC1)c1ccccc1 gave 11.93%.
c1ccc(-n2cc(CNCC3CCCN3c3cccnn3)nn2)cc1 (stereo unspecified) gave 6.286%.
Nc1nc(N2CCCCC2)ncc1C(=O)NCc1ccc(F)c(Cl)c1 gave 14.92%.
O=C(N[C@@H]1CCC[C@@H](N2CCOCC2)[C@@H]1O)c1cnn2cccnc12 gave 16.72%.
COCC(=O)N1CCC(c2cc(C(F)(F)F)c3c(C)noc3n2)CC1 gave 9.061%.
Cc1nc(CN2CCC(C(=O)N(C)C3CCC(C)CC3)CC2)cs1 (stereo unspecified) gave 2.375%.
O=C(O)CCC(=O)N1CCN(CC2CC2)c2ncccc2C1 gave 4.396%.
Cc1ccc(C)n1-c1c(C(=O)NCC(C)N(C)C)cnn1C (stereo unspecified) gave 16.33%.
CCCN(Cc1cccnc1)Cc1ccc(C2CCCCO2)o1 (stereo unspecified) gave 3.308%.
Cc1cc(C2CCC2)nc(NCCC23CCCN2CCC3)n1 gave 1.083%.
CCOC(=O)NCCC(=O)NCc1ccnc(Oc2ccc(F)cc2)c1 gave 13.66%.
c1ccc(-c2nc(CNC3CCc4ncnn4C3)cs2)cc1 (stereo unspecified) gave 11.22%.
CCc1nnsc1C(=O)N(C)Cc1ccco1 gave 8.974%.
CC(C)CC(=O)N1CCC2(CC1)COCCN2Cc1ccc(F)cc1 gave 6.667%.
OCC1CCCCN1c1ccc(-c2nc(-c3ccccc3F)no2)cn1 (stereo unspecified) gave 5.926%.
CNC(=O)c1cc2c(nc1NCC(C)C)CCN(S(C)(=O)=O)CC2 gave 0.3436%.
Cn1c(=O)ccn(CC(=O)Nc2cnccc2O)c1=O gave 8.101%.
CCC[C@@H]1CN(C(=O)c2ccccc2-c2ncc[nH]2)C[C@H]1N(C)C gave 6.87%.
CCn1cnnc1CNC(=O)NCC(c1cccs1)N1CCCC1 (stereo unspecified) gave 14.98%.
Cc1cc2n(n1)CC(CNCc1cnn(-c3ccccc3)c1)CN2 (stereo unspecified) gave 22.45%.
COc1cccc(-c2ncc(CN3CCOCC(O)C3)s2)c1 (stereo unspecified) gave 14.63%.

For reference, 5 entries once more:

- CCc1nnsc1C(=O)N(C)Cc1ccco1 : 8.974%
- Cc1ccc(C)n1-c1c(C(=O)NCC(C)N(C)C)cnn1C (stereo unspecified) : 16.33%
- O=C(CC1CCN(c2cccnn2)CC1)Nc1nncs1 : 13.65%
- Cc1cc(C2CCC2)nc(NCCC23CCCN2CCC3)n1 : 1.083%
- O=C(O)CCC(=O)N1CCN(CC2CC2)c2ncccc2C1 : 4.396%